Data from US20040214317A1, “Novel human G-protein coupled receptor, HGPRBMY8, expressed highly in brain” (priority 2000, published 2004).
At least one structure is not confirmed: it was looked up by name or label, or the drawing left a doubt.

System: CRE (cAMP response element) in HEK-CRE cell line
Experiment: Beta-lactamase reporter assay in HEK-CRE cell line
Format: cell-based
Settings: 10 μM, data not shown

C=C[C@@]1(C)CC(=O)[C@]2(O)[C@@]3(C)[C@@H](O)CCC(C)(C)[C@@H]3[C@H](O)[C@H](OC(C)=O)[C@@]2(C)O1 [Forskolin]
activation of CRE and induction of Beta-Lactamase: activate CRE
